# Data taken from the supplement of paper PMC12823440, “Inhibitors supercharge kinase turnover through native proteolytic circuits” (Nature, 2025).
# Chains of the proteins cited; added tags and fusions are not shown. Lines headed by an entry give the natural chain unless they say otherwise; changes in a name come on top.
# UniProt P50750, whole entry: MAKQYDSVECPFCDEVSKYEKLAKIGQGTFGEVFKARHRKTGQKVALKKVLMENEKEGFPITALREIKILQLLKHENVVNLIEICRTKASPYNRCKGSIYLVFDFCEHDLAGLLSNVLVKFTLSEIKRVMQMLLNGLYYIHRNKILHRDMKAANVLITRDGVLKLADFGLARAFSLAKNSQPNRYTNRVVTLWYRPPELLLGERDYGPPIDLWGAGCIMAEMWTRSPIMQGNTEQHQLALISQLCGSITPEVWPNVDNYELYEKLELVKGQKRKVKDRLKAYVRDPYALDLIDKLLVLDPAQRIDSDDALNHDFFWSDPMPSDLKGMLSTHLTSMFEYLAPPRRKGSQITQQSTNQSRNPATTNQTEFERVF
# UniProt O96017, whole entry: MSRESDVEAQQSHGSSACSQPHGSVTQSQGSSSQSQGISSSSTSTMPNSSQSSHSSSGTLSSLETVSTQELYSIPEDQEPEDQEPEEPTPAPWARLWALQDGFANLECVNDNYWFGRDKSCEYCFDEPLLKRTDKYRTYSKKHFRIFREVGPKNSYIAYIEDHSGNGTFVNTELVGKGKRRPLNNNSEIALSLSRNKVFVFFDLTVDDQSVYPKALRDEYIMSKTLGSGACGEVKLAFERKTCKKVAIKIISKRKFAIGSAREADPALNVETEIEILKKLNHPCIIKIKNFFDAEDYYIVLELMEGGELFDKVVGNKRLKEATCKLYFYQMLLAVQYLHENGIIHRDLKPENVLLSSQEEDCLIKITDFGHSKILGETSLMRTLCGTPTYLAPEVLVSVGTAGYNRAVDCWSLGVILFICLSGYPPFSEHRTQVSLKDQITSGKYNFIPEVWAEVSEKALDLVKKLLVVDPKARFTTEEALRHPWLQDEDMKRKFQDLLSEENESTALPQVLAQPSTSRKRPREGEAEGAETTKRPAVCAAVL
# UniProt P07333, whole entry: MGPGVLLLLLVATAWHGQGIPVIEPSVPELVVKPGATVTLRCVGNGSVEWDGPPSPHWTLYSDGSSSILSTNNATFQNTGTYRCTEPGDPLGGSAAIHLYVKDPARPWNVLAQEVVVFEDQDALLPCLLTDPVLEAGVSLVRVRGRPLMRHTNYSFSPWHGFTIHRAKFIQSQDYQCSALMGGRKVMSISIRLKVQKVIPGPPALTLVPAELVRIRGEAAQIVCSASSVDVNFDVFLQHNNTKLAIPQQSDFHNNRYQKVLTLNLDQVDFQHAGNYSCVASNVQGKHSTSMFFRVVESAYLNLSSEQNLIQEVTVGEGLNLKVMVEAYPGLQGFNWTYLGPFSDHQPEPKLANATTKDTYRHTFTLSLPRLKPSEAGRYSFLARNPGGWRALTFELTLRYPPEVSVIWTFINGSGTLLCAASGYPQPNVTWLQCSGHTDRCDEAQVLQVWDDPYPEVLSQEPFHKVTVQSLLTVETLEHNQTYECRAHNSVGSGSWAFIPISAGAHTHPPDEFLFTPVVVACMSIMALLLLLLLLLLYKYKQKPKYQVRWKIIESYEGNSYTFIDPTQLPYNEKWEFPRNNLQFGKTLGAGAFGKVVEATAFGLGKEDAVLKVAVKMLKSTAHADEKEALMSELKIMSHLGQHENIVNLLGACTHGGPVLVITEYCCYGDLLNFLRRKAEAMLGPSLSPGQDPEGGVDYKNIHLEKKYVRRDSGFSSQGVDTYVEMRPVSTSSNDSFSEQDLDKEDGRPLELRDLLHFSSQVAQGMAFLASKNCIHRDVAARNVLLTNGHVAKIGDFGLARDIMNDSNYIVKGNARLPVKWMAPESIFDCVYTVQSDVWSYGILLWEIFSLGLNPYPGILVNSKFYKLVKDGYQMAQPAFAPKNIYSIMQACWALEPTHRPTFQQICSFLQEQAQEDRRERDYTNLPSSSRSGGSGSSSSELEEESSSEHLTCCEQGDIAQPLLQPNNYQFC
# UniProt P41240: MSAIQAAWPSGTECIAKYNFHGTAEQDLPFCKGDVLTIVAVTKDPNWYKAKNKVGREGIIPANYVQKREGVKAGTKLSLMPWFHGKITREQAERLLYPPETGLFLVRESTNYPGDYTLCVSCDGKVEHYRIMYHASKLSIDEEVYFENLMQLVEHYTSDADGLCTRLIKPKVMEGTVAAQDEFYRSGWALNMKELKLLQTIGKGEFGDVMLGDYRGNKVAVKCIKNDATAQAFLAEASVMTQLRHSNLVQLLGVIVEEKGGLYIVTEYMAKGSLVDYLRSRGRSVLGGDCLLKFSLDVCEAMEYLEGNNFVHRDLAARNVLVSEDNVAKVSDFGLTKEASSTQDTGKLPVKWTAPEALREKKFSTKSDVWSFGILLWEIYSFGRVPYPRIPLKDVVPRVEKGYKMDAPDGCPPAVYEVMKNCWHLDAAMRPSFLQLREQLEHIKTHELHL
# UniProt P48729: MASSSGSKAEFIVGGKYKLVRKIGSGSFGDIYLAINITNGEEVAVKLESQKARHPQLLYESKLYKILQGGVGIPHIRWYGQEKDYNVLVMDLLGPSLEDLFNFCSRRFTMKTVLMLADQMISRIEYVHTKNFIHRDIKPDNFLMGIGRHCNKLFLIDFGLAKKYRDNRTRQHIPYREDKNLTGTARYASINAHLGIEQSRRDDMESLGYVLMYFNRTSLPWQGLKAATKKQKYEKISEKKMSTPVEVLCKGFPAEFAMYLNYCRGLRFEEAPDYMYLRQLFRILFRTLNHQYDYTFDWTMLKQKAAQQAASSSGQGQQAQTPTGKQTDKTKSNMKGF
# UniProt Q9Y463, whole entry, looked up: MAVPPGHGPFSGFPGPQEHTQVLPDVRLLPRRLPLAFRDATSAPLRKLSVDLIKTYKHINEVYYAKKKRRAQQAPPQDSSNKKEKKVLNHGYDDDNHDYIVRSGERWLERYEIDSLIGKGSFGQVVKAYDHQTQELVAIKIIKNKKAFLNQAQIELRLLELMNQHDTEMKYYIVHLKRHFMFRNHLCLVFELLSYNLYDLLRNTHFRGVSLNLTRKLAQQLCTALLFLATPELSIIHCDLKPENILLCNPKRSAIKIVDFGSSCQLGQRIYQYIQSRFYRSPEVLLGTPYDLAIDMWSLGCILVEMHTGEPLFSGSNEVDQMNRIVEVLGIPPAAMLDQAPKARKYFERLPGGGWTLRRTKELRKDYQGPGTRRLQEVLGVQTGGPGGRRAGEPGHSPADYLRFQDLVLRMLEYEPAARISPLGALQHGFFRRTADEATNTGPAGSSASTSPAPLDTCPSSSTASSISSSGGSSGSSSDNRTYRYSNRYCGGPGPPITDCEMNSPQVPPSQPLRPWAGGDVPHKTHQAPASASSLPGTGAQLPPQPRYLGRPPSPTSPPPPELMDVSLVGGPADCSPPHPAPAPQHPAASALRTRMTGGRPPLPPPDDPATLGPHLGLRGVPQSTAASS
# UniProt Q92630: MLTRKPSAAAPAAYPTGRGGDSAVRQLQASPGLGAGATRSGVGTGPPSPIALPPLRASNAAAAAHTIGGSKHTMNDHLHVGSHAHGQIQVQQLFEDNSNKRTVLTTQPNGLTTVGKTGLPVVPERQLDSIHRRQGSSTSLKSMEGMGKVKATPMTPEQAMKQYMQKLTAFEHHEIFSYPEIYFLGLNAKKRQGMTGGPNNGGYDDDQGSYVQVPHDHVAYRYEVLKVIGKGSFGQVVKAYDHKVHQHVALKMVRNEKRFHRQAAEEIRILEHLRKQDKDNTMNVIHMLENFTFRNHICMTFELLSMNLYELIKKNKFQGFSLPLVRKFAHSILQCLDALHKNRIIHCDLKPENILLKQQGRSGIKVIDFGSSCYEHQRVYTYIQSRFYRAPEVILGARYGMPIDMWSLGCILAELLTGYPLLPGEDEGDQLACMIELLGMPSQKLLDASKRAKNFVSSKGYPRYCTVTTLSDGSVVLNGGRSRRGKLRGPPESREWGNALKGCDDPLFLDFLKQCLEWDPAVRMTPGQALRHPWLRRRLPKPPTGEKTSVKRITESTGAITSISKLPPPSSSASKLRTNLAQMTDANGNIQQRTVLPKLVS
# UniProt P21860, whole entry: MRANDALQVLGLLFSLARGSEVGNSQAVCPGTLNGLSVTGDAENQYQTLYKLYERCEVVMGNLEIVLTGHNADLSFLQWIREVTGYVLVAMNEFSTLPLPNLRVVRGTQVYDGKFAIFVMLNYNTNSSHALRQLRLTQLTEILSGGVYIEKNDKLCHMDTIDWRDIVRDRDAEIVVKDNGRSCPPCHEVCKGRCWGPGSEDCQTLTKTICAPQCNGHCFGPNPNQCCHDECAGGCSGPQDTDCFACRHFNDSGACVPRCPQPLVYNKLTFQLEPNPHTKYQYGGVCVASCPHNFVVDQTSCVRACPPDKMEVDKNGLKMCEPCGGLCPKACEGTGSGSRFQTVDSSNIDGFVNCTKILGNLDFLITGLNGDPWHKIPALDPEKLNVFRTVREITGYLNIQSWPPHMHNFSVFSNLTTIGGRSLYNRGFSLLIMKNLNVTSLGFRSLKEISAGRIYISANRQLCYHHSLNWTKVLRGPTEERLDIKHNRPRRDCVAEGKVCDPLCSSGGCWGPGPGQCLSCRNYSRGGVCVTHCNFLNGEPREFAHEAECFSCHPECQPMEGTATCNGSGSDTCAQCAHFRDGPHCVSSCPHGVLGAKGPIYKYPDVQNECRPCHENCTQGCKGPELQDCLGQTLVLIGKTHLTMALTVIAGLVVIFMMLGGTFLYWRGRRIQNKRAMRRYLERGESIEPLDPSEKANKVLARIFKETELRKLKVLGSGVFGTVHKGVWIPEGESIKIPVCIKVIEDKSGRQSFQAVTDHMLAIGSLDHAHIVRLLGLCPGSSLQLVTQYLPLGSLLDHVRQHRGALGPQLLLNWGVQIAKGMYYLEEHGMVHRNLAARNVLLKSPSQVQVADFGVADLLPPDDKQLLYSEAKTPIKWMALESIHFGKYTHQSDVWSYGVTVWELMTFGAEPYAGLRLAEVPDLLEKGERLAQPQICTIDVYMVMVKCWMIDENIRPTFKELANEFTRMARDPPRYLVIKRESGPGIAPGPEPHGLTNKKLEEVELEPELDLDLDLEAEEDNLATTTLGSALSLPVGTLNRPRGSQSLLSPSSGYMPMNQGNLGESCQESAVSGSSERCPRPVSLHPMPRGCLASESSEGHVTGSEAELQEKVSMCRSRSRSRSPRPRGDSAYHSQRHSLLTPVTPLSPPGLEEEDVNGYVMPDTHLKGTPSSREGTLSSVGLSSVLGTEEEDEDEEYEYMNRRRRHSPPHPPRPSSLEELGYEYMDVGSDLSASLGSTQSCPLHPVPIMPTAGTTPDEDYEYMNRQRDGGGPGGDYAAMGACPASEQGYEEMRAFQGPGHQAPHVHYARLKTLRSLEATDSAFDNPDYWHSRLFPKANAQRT
# UniProt Q15303, whole entry R711C: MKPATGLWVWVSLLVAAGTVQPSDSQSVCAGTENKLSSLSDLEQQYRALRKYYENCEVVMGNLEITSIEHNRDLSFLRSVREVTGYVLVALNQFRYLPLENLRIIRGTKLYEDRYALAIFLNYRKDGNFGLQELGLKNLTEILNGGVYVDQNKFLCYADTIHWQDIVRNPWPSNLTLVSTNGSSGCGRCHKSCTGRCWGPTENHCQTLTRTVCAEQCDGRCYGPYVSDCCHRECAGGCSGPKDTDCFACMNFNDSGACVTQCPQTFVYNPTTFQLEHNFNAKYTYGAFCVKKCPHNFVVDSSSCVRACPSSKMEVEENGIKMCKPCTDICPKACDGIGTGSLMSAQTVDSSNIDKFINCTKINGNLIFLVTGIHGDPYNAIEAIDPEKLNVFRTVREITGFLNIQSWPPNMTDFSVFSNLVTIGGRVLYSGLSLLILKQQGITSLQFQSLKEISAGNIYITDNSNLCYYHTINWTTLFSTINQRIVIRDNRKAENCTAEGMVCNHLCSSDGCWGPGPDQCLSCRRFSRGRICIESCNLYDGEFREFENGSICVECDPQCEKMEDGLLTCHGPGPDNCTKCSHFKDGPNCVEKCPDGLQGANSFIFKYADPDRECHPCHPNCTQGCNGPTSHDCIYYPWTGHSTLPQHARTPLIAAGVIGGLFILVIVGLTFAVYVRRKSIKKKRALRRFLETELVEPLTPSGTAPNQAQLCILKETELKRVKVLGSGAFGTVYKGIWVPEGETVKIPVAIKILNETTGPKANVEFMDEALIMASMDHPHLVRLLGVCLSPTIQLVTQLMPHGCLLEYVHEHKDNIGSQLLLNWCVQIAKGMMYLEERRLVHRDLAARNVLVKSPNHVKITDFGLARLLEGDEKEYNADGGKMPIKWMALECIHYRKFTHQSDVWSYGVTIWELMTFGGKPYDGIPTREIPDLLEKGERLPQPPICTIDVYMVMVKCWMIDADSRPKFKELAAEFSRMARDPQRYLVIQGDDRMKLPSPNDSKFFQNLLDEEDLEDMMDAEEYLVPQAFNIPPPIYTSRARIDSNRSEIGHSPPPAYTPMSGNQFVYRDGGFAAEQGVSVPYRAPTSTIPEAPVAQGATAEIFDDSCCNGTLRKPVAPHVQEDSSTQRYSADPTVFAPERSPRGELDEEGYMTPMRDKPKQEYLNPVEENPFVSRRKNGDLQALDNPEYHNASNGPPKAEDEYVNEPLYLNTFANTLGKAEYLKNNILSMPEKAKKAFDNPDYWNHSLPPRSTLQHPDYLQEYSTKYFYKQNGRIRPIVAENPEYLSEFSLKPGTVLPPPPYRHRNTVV
# Structures can show the parent of a compound that is named as a salt. Some of the results follow. The calls rarely recur for the same compound in another form.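 Kinases were expressed as nanoluciferase fusions in K562 cells and luminescence was read every 4 h between 2 and 18 h as percent of control, DMSO set to 100% and a positive control to 0%. A time point counts as decreased when the signal drops significantly (2 sigma). The hit call is the authors' own, does not follow from the count of time points alone, and its rule is not shown.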
# Experiments:
# Experiment in all cases: kinase-Nluc reporter destabilization hit call (1 = scored as downregulated) (binary); higher = compound decreases kinase abundance
# Conditions in all cases: K562; 2-18 h
# CDK7 = CDK7 (UniProt P50613)
# CDK9 = CDK9 (UniProt P50750)
# CHEK2 = CHEK2 (UniProt O96017)
# CSF1R = CSF1R (UniProt P07333)
# CSK = CSK (UniProt P41240)
# CSNK1A1 = CSNK1A1 (UniProt P48729)
# CSNK1D = CSNK1D (UniProt P48730)
# DDR1 = DDR1 (UniProt Q08345)
# DYRK1B = DYRK1B (UniProt Q9Y463)
# DYRK2 = DYRK2 (UniProt Q92630)
# EGFR = EGFR (UniProt P00533)
# EGFR_G719S = EGFR_G719S (UniProt P00533)
# EGFR_G719S_T790M = EGFR_G719S_T790M (UniProt P00533)
# EGFR_L718V = EGFR_L718V (UniProt P00533)
# EGFR_L858R = EGFR_L858R (UniProt P00533)
# EGFR_L861Q = EGFR_L861Q (UniProt P00533)
# EGFR_T790M = EGFR_T790M (UniProt P00533)
# EPHA2 = EPHA2 (UniProt P29317)
# ERBB3 = ERBB3 (UniProt P21860)
# [1] = target: ERBB4_R711C (clone: ERBB4_mut) (UniProt Q15303)
Structure (SMILES),kinase-Nluc reporter destabilization hit call (CDK7),kinase-Nluc reporter destabilization hit call (CDK9),kinase-Nluc reporter destabilization hit call (CHEK2),kinase-Nluc reporter destabilization hit call (CSF1R),kinase-Nluc reporter destabilization hit call (CSK),kinase-Nluc reporter destabilization hit call (CSNK1A1),kinase-Nluc reporter destabilization hit call (CSNK1D),kinase-Nluc reporter destabilization hit call (DDR1),kinase-Nluc reporter destabilization hit call (DYRK1B),kinase-Nluc reporter destabilization hit call (DYRK2),kinase-Nluc reporter destabilization hit call (EGFR),kinase-Nluc reporter destabilization hit call (EGFR_G719S),kinase-Nluc reporter destabilization hit call (EGFR_G719S_T790M),kinase-Nluc reporter destabilization hit call (EGFR_L718V),kinase-Nluc reporter destabilization hit call (EGFR_L858R),kinase-Nluc reporter destabilization hit call (EGFR_L861Q),kinase-Nluc reporter destabilization hit call (EGFR_T790M),kinase-Nluc reporter destabilization hit call (EPHA2),kinase-Nluc reporter destabilization hit call (ERBB3),kinase-Nluc reporter destabilization hit call [1]
CC(C)N(C)c1nc2cc(C(=O)O)ccc2nc1-c1ccc(F)cc1 (10 µM),inactive: 0,inactive: 0,inactive: 0,inactive: 0,inactive: 0,inactive: 0,inactive: 0,inactive: 0,inactive: 0,inactive: 0,inactive: 0,inactive: 0,inactive: 0,inactive: 0,inactive: 0,inactive: 0,inactive: 0,inactive: 0,inactive: 0,inactive: 0
C[C@@H]1O[C@@H](OC[C@H]2O[C@@H](Oc3cc(O)c4c(c3)O[C@H](c3ccc(O)cc3)CC4=O)[C@H](O)[C@@H](O)[C@@H]2O)[C@H](O)[C@H](O)[C@H]1O [Narirutin] (10 µM),inactive: 0,inactive: 0,inactive: 0,inactive: 0,inactive: 0,inactive: 0,inactive: 0,inactive: 0,inactive: 0,inactive: 0,inactive: 0,inactive: 0,inactive: 0,inactive: 0,inactive: 0,inactive: 0,inactive: 0,inactive: 0,inactive: 0,inactive: 0
COc1cnccc1Nc1nc(-c2nn(Cc3c(F)cc(OCCO)cc3F)c3ccccc23)ncc1OC (10 µM),inactive: 0,inactive: 0,inactive: 0,inactive: 0,inactive: 0,inactive: 0,inactive: 0,inactive: 0,inactive: 0,inactive: 0,inactive: 0,inactive: 0,inactive: 0,inactive: 0,inactive: 0,inactive: 0,inactive: 0,inactive: 0,inactive: 0,inactive: 0
CNC(=O)c1ccc(-c2cnc3cnc(-c4ccccc4)cn23)cc1 (10 µM),inactive: 0,inactive: 0,inactive: 0,inactive: 0,inactive: 0,inactive: 0,inactive: 0,inactive: 0,inactive: 0,inactive: 0,inactive: 0,inactive: 0,inactive: 0,inactive: 0,inactive: 0,inactive: 0,inactive: 0,inactive: 0,inactive: 0,inactive: 0
O=C(Nc1ccc(Cl)cc1)C1CCCN(C(=O)c2cccc(-c3ccco3)c2)C1 (stereo not given) (2.5 µM),inactive: 0,inactive: 0,inactive: 0,inactive: 0,inactive: 0,inactive: 0,inactive: 0,inactive: 0,inactive: 0,inactive: 0,inactive: 0,inactive: 0,inactive: 0,inactive: 0,inactive: 0,inactive: 0,inactive: 0,inactive: 0,inactive: 0,inactive: 0
CCOc1nc(Nc2ccc(C(=O)N3CCOCC3)cc2OC)nc2[nH]ccc12 [LRRK2 inhibitor 1] (2.5 µM),inactive: 0,inactive: 0,inactive: 0,inactive: 0,inactive: 0,inactive: 0,inactive: 0,inactive: 0,inactive: 0,inactive: 0,inactive: 0,inactive: 0,inactive: 0,inactive: 0,inactive: 0,inactive: 0,inactive: 0,inactive: 0,inactive: 0,inactive: 0
CCOc1c([C@H](C)n2nc(C)c3c(N)ncnc32)cc(Cl)c(F)c1[C@@H]1CNC(=O)C1 [Parsaclisib (hydrochloride)] (10 µM),inactive: 0,inactive: 0,inactive: 0,inactive: 0,inactive: 0,inactive: 0,inactive: 0,inactive: 0,inactive: 0,inactive: 0,inactive: 0,inactive: 0,inactive: 0,inactive: 0,inactive: 0,inactive: 0,inactive: 0,inactive: 0,inactive: 0,inactive: 0
C=CC(=O)Nc1cccc(-n2c(=O)cc(C)c3cnc(Nc4ccc(OCCN(C)C)cc4OC)nc32)c1 (10 µM),inactive: 0,inactive: 0,inactive: 0,inactive: 0,inactive: 0,inactive: 0,inactive: 0,inactive: 0,inactive: 0,inactive: 0,inactive: 0,inactive: 0,inactive: 0,inactive: 0,inactive: 0,inactive: 0,inactive: 0,inactive: 0,inactive: 0,active: 1
COc1nc(-c2ccnc(NC(=O)C3CC3)c2)sc1C(N)=O [GSK-3β inhibitor 2] (10 µM),inactive: 0,inactive: 0,inactive: 0,inactive: 0,inactive: 0,inactive: 0,inactive: 0,inactive: 0,inactive: 0,inactive: 0,inactive: 0,inactive: 0,inactive: 0,inactive: 0,inactive: 0,inactive: 0,inactive: 0,inactive: 0,inactive: 0,inactive: 0
Nc1[nH]c(=O)nc2c1ncn2[C@@H]1O[C@H](CO)[C@@H](O)[C@H]1O [Crotonoside] (10 µM),inactive: 0,inactive: 0,inactive: 0,inactive: 0,inactive: 0,inactive: 0,inactive: 0,inactive: 0,inactive: 0,inactive: 0,inactive: 0,inactive: 0,inactive: 0,inactive: 0,inactive: 0,inactive: 0,inactive: 0,inactive: 0,inactive: 0,inactive: 0
C=CS(=O)(=O)c1ccc(Nc2nc(OCC3CCCCC3)c3[nH]cnc3n2)cc1 (2.5 µM),inactive: 0,inactive: 0,inactive: 0,inactive: 0,inactive: 0,inactive: 0,inactive: 0,inactive: 0,inactive: 0,inactive: 0,inactive: 0,inactive: 0,inactive: 0,inactive: 0,inactive: 0,inactive: 0,inactive: 0,inactive: 0,inactive: 0,inactive: 0
CSc1ccc(CN2CCCC(Nc3ccc4[nH]ncc4c3)C2)cc1 (stereo not given) [Rho-Kinase-IN-1] (10 µM),inactive: 0,inactive: 0,inactive: 0,inactive: 0,inactive: 0,inactive: 0,inactive: 0,inactive: 0,inactive: 0,inactive: 0,inactive: 0,inactive: 0,inactive: 0,inactive: 0,inactive: 0,inactive: 0,inactive: 0,inactive: 0,inactive: 0,inactive: 0
CC1=C(CC(=O)O)c2cc(F)ccc2/C1=C\c1ccc(C(C)C)cc1 (10 µM),inactive: 0,inactive: 0,inactive: 0,inactive: 0,inactive: 0,inactive: 0,inactive: 0,inactive: 0,active: 1,inactive: 0,inactive: 0,inactive: 0,inactive: 0,inactive: 0,inactive: 0,inactive: 0,inactive: 0,inactive: 0,inactive: 0,inactive: 0
Nc1ncc(-c2ccc(C(=O)N3CCNCC3)cc2)nc1-c1ccc(C(F)(F)F)cc1 (10 µM),inactive: 0,inactive: 0,inactive: 0,inactive: 0,inactive: 0,inactive: 0,inactive: 0,inactive: 0,inactive: 0,inactive: 0,inactive: 0,inactive: 0,inactive: 0,inactive: 0,inactive: 0,inactive: 0,inactive: 0,inactive: 0,inactive: 0,inactive: 0
CC(C)Oc1ccc(-c2cnc3c(-c4ccnc5ccccc45)cnn3c2)cc1 (10 µM),inactive: 0,inactive: 0,inactive: 0,inactive: 0,inactive: 0,inactive: 0,inactive: 0,inactive: 0,inactive: 0,inactive: 0,inactive: 0,inactive: 0,inactive: 0,inactive: 0,inactive: 0,inactive: 0,inactive: 0,inactive: 0,inactive: 0,inactive: 0
C=CC(=O)N1CCC(Oc2cc3c(Nc4ccc(Cl)c(Cl)c4F)ncnc3cc2OC)CC1 [Poziotinib] (2.5 µM),inactive: 0,inactive: 0,inactive: 0,inactive: 0,inactive: 0,inactive: 0,inactive: 0,inactive: 0,inactive: 0,inactive: 0,inactive: 0,inactive: 0,inactive: 0,inactive: 0,inactive: 0,inactive: 0,inactive: 0,inactive: 0,inactive: 0,inactive: 0
CCc1cccc(CC)c1NC(=O)c1nn(C)c2c1CCc1cnc(Nc3ccc(C(=O)NC4CCN(C)CC4)cc3OC(F)(F)F)nc1-2 (2 µM),inactive: 0,inactive: 0,inactive: 0,inactive: 0,inactive: 0,inactive: 0,inactive: 0,inactive: 0,inactive: 0,inactive: 0,inactive: 0,inactive: 0,inactive: 0,inactive: 0,inactive: 0,inactive: 0,inactive: 0,inactive: 0,inactive: 0,inactive: 0

# Quoted at random: 2 compounds from above
Structure (SMILES),kinase-Nluc reporter destabilization hit call (CDK7),kinase-Nluc reporter destabilization hit call (CDK9),kinase-Nluc reporter destabilization hit call (CHEK2),kinase-Nluc reporter destabilization hit call (CSF1R),kinase-Nluc reporter destabilization hit call (CSK),kinase-Nluc reporter destabilization hit call (CSNK1A1),kinase-Nluc reporter destabilization hit call (CSNK1D),kinase-Nluc reporter destabilization hit call (DDR1),kinase-Nluc reporter destabilization hit call (DYRK1B),kinase-Nluc reporter destabilization hit call (DYRK2),kinase-Nluc reporter destabilization hit call (EGFR),kinase-Nluc reporter destabilization hit call (EGFR_G719S),kinase-Nluc reporter destabilization hit call (EGFR_G719S_T790M),kinase-Nluc reporter destabilization hit call (EGFR_L718V),kinase-Nluc reporter destabilization hit call (EGFR_L858R),kinase-Nluc reporter destabilization hit call (EGFR_L861Q),kinase-Nluc reporter destabilization hit call (EGFR_T790M),kinase-Nluc reporter destabilization hit call (EPHA2),kinase-Nluc reporter destabilization hit call (ERBB3),kinase-Nluc reporter destabilization hit call [1]
CSc1ccc(CN2CCCC(Nc3ccc4[nH]ncc4c3)C2)cc1 (stereo not given) [Rho-Kinase-IN-1] (10 µM),inactive: 0,inactive: 0,inactive: 0,inactive: 0,inactive: 0,inactive: 0,inactive: 0,inactive: 0,inactive: 0,inactive: 0,inactive: 0,inactive: 0,inactive: 0,inactive: 0,inactive: 0,inactive: 0,inactive: 0,inactive: 0,inactive: 0,inactive: 0
O=C(Nc1ccc(Cl)cc1)C1CCCN(C(=O)c2cccc(-c3ccco3)c2)C1 (stereo not given) (2.5 µM),inactive: 0,inactive: 0,inactive: 0,inactive: 0,inactive: 0,inactive: 0,inactive: 0,inactive: 0,inactive: 0,inactive: 0,inactive: 0,inactive: 0,inactive: 0,inactive: 0,inactive: 0,inactive: 0,inactive: 0,inactive: 0,inactive: 0,inactive: 0
